According to PubChem BioAssay AID330 (DTP/NCI, 2004):
The list is a part of this screen's results and no random one: it gathers tests that were run many times, whatever their T/C, doses with no T/C, and many T/C values between a quarter and a half above the control. Further doses and runs are listed elsewhere. T/C is the treated group as % of the vehicle group. Some doses have a count of surviving animals in place of a T/C: the source holds a T/C of zero for them, seemingly a mark for toxic or unscored doses. Some doses without a T/C left all or most animals alive at the check, yet need not have been tolerated: survival well below the control is almost never listed, so the zero probably covers shortened survival too. Survivors were counted at the toxicity check, usually on the fifth day, unless a day is given; later deaths do not show. Schedule codes are those of the source, read here as Q, the interval in days (D) or hours (H), X, the number of doses. Some entries were tested several times; the values are given in rising order. Where survival is the endpoint, the PubChem record calls one and a half times the control and up active, and a quarter to a half above the control has no call in these data; cut-offs in other NCI protocols can differ. Counts like (3×) count equal records among those shown. Some T/C values carry the count of animals alive at the toxicity check (mostly the fifth day); where none is given, no animal had died by that day.

System: P388 leukemia ip, CD2F1 mice, survival T/C
Assay: NCI In Vivo Anticancer Drug Screen. Data for tumor model P388 Leukemia (intraperitoneal) in CD2F1 (CDF1) mice
Conditions: T/C endpoint: median survival time, higher T/C = longer survival
[1] = dose: 6.25 mg/kg/injection, schedule: Q01DX009 (ip), vehicle: saline
[2] = dose: 50.0 mg/kg/injection, schedule: Q01DX009 (ip), vehicle: saline
[3] = dose: 100.0 mg/kg/injection, schedule: Q01DX009 (ip), vehicle: saline
[4] = dose: 200.0 mg/kg/injection, schedule: Q01DX009 (ip), vehicle: saline
[5] = dose: 120.0 mg/kg/injection, schedule: Q01DX005 (ip), vehicle: saline with Tween-80
[6] = dose: 240.0 mg/kg/injection, schedule: Q01DX005 (ip), vehicle: saline with Tween-80
[7] = dose: 100.0 mg/kg/injection, schedule: Q01DX005 (ip), vehicle: saline with Tween-80
[8] = dose: 240.0 mg/kg/injection, schedule: Q01DX005 (ip), vehicle: Klucel (hydroxypropylcellulose) (HPC)
[9] = dose: 100.0 mg/kg/injection, schedule: Q01DX009 (ip), vehicle: Klucel (hydroxypropylcellulose) (HPC)
[10] = dose: 200.0 mg/kg/injection, schedule: Q01DX009 (ip), vehicle: Klucel (hydroxypropylcellulose) (HPC)
[11] = dose: 200.0 mg/kg/injection, schedule: Q01DX009 (ip), vehicle: saline with Tween-80
[12] = dose: 25.0 mg/kg/injection, schedule: Q01DX009 (ip), vehicle: water
[13] = dose: 50.0 mg/kg/injection, schedule: Q01DX009 (ip), vehicle: water
[14] = dose: 200.0 mg/kg/injection, schedule: Q04DX003 (ip), vehicle: saline with Tween-80
[15] = dose: 3.13 mg/kg/injection, schedule: Q01DX009 (ip), vehicle: water
[16] = dose: 6.25 mg/kg/injection, schedule: Q01DX009 (ip), vehicle: water
[17] = dose: 50.0 mg/kg/injection, schedule: Q01DX005 (ip), vehicle: Klucel (hydroxypropylcellulose) (HPC)
[18] = dose: 200.0 mg/kg/injection, schedule: Q01DX005 (ip), vehicle: Klucel (hydroxypropylcellulose) (HPC)

[CH3][Sn]([CH3])([Cl])[CH2]CC[CH2][Ge]([Cl])([Cl])[Cl]
T/C (dose: 3.12 mg/kg/injection, schedule: Q01DX009 (ip), vehicle: saline): 138 % of control
T/C [1]: 133 % of control
survivor count [1]: 0 of 6
survivor count (dose: 12.5 mg/kg/injection, schedule: Q01DX009 (ip), vehicle: saline): 4 of 6
survivor count (dose: 25.0 mg/kg/injection, schedule: Q01DX009 (ip), vehicle: saline): 1 of 6
survivor count [2]: 0 of 6
survivor count [3]: 0 of 6
survivor count [4]: 0 of 6

N#CC1[C@@H](C(=O)c2ccccc2)N2C=Cc3ccccc3[C@@H]2[C@H]1C#N (some centres not stated)
survivor count [5]: 6 of 6
survivor count [6]: 6 of 6

COc1ccc(N=N/N=c2\sc3cc(Cl)ccc3n2C)cc1
T/C (dose: 60.0 mg/kg/injection, schedule: Q01DX005 (ip), vehicle: saline with Tween-80): 131 % of control
T/C [5]: 141 % of control [5 of 6 alive]

C[N+](C)(C)NP(=O)(N[N+](C)(C)C)Oc1ccccc1
T/C (dose: 240.0 mg/kg/injection, schedule: Q01DX005 (ip), vehicle: saline): 128 % of control

Cc1cc2c(cc1C)C(=O)C(Br)=C(N)C2=O
survivor count [7]: 6 of 6

COC(=O)c1nc(N)nc(C(=O)OC)c1C(=O)c1cccc([N+](=O)[O-])c1
survivor count [8]: 0 of 6

C1CCC([Se][Se]C2CCCC2)C1
survivor count [9]: 5 of 6
survivor count [10]: 0 of 6

CC1C/C(=C\N=[N+]=[N-])C(=O)O1 (configuration not stated)
survivor count [5]: 0 of 6
survivor count [6]: 0 of 6

O=C1C2C3C=CC(C2C(=O)N1CN1CCOCC1)C1C2C(=O)N(CN4CCOCC4)C(=O)C2C31 (configuration not stated)
T/C (dose: 25.0 mg/kg/injection, schedule: Q01DX009 (ip), vehicle: saline with Tween-80): 125 % of control
T/C (dose: 50.0 mg/kg/injection, schedule: Q01DX009 (ip), vehicle: saline with Tween-80): 141 and 148 % of control
survivor count [11]: 3 of 6 and 4 of 6

CN(C)CN1C(=O)S/C(=C2\C(=O)N(CN(C)C)c3ccccc32)C1=O
T/C (dose: 120.0 mg/kg/injection, schedule: Q01DX005 (ip), vehicle: Klucel (hydroxypropylcellulose) (HPC)): 125 % of control
T/C [8]: 126 % of control

N=C(N)c1nn(C2OC(CO)C(O)C2O)c2nc[nH]c(=O)c12 (configuration not stated)
survivor count (dose: 50.0 mg/kg/injection, schedule: Q01DX005 (ip), vehicle: saline with Tween-80): 5 of 6
survivor count [7]: 0 of 6

CC(=O)NCCCC(=O)O
survivor count [2]: 5 of 6
survivor count [3]: 2 of 6

COc1ccc(NC(=S)C#N)cc1
survivor count [5]: 3 of 6
survivor count [6]: 1 of 6

[Cu+2].[NH-]C(CCC(N)=O)C(=O)O.[NH-]C(CCC(N)=O)C(=O)O (configuration not stated)
survivor count (dose: 25.0 mg/kg/injection, schedule: Q04DX003 (ip), vehicle: saline): 3 of 6

CCCCS(=O)(=O)N/N=C/C(=O)O
T/C [12]: 135 and 136 % of control [5 of 6 alive]
T/C [13]: 136 % of control [5 of 6 alive]
survivor count (dose: 100.0 mg/kg/injection, schedule: Q01DX009 (ip), vehicle: water): 5 of 6
survivor count (dose: 200.0 mg/kg/injection, schedule: Q01DX009 (ip), vehicle: water): 4 of 6 and 5 of 6
survivor count (dose: 400.0 mg/kg/injection, schedule: Q01DX009 (ip), vehicle: water): 0 of 6

CCOC(=O)C([NH-])C([NH-])C(=O)OCC.[Cl][Pt+2][Cl] (configuration not stated)
T/C (dose: 6.25 mg/kg/injection, schedule: Q04DX002 (ip), vehicle: saline with Tween-80): 131 % of control

CN(C)CCOc1cccc2c1CCC2
survivor count [6]: 0 of 6

NNC(=O)c1ccc(N)cc1
survivor count [14]: 4 of 6

Cc1ccc(S(=O)(=O)N=P(c2ccccc2)(c2ccccc2)c2ccccc2)cc1
survivor count (dose: 400.0 mg/kg/injection, schedule: Q01DX009 (ip), vehicle: saline with Tween-80): 6 of 6

O=NNc1ncccc1OCc1ccccc1
T/C [15]: 125 % of control
T/C [16]: 125 and 136 % of control
survivor count [12]: 6 of 6
survivor count [13]: 6 of 6

Cc1cnc(C)c2ccccc12
survivor count [11]: 0 of 6

CS(=O)(=O)C(=Cc1ccccc1Cl)S(C)(=O)=O
survivor count (dose: 400.0 mg/kg/injection, schedule: Q04DX003 (ip), vehicle: Klucel (hydroxypropylcellulose) (HPC)): 0 of 6

Cc1cc(C)n(C(N)=NC(=O)c2ccccc2)n1
survivor count [9]: 6 of 6
survivor count [10]: 6 of 6

ClCCn1c(CCl)nc2ccc(Cl)cc21
survivor count (dose: 50.0 mg/kg/injection, schedule: Q01DX009 (ip), vehicle: Klucel (hydroxypropylcellulose) (HPC)): 5 of 6

CCOP(=O)(O)CC(=O)NC(CC(=O)O)C(=O)O (configuration not stated)
T/C [10]: 125 % of control

Nc1c(/C=C/c2cc3ccc(C4=NCCN4)cc3[nH]2)[nH]c2cc(C3=NCCN3)ccc12
T/C [17]: 127 % of control
T/C (dose: 100.0 mg/kg/injection, schedule: Q01DX005 (ip), vehicle: Klucel (hydroxypropylcellulose) (HPC)): 142 % of control
survivor count [18]: 0 of 6

CN(C)c1ccc(/C=N/NC(N)=S)nc1
T/C (dose: 66.0 mg/kg/injection, schedule: Q04DX003 (ip), vehicle: saline with Tween-80): 131 % of control
T/C (dose: 100.0 mg/kg/injection, schedule: Q04DX003 (ip), vehicle: saline with Tween-80): 140 and 145 % of control
survivor count (dose: 150.0 mg/kg/injection, schedule: Q04DX003 (ip), vehicle: saline with Tween-80): 2 of 6
survivor count [14]: 5 of 6

COc1cccc2c1C(=O)c1c(O)c3c(c(O)c1C2=O)C[C@@](O)(C(=O)CSC(=O)c1ccccc1)C[C@@H]3OC1CC(N)C(O)C(C)O1 (some centres not stated)
T/C (dose: 1.56 mg/kg/injection, schedule: Q01DX009 (ip), vehicle: water): 128 and 131 % of control
T/C [15]: 138 and 144 % of control
T/C (dose: 6.25 mg/kg/injection, schedule: Q01DX001 (ip), vehicle: water): 126 % of control
T/C [16]: 131 and 137 % of control
T/C (dose: 12.5 mg/kg/injection, schedule: Q01DX001 (ip), vehicle: water): 126 % of control
T/C (dose: 12.5 mg/kg/injection, schedule: Q01DX009 (ip), vehicle: water): 137 % of control (2×)
survivor count [12]: 5 of 6
survivor count (dose: 100.0 mg/kg/injection, schedule: Q01DX001 (ip), vehicle: water): 0 of 6
survivor count (dose: 200.0 mg/kg/injection, schedule: Q01DX001 (ip), vehicle: water): 0 of 6

CCCCCC(CN(C)C)C(O)/C=C/c1ccc(Cl)c(Cl)c1 (configuration not stated)
survivor count [2]: 2 of 6 and 4 of 6
survivor count [3]: 0 of 6
survivor count [4]: 0 of 6

CCOc1ccc2[nH]c(=S)sc2c1
survivor count (dose: 400.0 mg/kg/injection, schedule: Q01DX009 (ip), vehicle: Klucel (hydroxypropylcellulose) (HPC)): 5 of 6

N=c1nc(-c2ccccc2)c(-c2ccccc2)nn1CC(=O)c1ccc(Br)cc1
survivor count [18]: 5 of 6

COC(=O)C(=O)c1c(C(=O)OC)nc2nnc(N)n2c1-c1ccc(F)cc1
survivor count [5]: 6 of 6

CC[CH2][Sn]([Cl])([Cl])[CH2]CC.Oc1ccccc1C=NCCN=Cc1ccccc1O
T/C (dose: 1.25 mg/kg/injection, schedule: Q01DX009 (ip), vehicle: gum acacia): 125 % of control
T/C (dose: 2.5 mg/kg/injection, schedule: Q01DX009 (ip), vehicle: gum acacia): 134 % of control
survivor count (dose: 10.0 mg/kg/injection, schedule: Q01DX009 (ip), vehicle: gum acacia): 2 of 6

CCOC(=O)c1cc[nH]c1CC(=O)NC
survivor count (dose: 400.0 mg/kg/injection, schedule: Q01DX001 (ip), vehicle: saline with Tween-80): 4 of 5

O=C1C(n2ccc(=O)[nH]c2=O)CCN1CCCl (configuration not stated)
survivor count [17]: 6 of 6
